Data reported in the supplement of paper PMC8728848.
This is one part of the list.

Columns and labels:
Test in all cases: glycan array binding signal (z-score within array); higher = stronger binding
Conditions in all cases: glycan notation: IUPAC condensed, linker removed
[1] = target: Fuc(a1-2)Gal(b1-4)GlcNAc(b1-3)Gal(b1-4)GlcNAc(b1-3)Gal(b1-4)GlcNAc
Procedure, shortened: (§1)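 Glycan array data were curated from 3228 arrays in the Consortium for Functional Glycomics database and kept only where the protein sequence was available. Glycan names were converted to IUPAC-condensed notation, and columns mapping to the same glycan were averaged. The binding signal is a within-array Z-score, averaged across arrays of the same protein sequence at different concentrations or buffers and across linkers. Negative Z-scores can be read as non-binding.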

[2] = target: Fuc(a1-2)Gal(b1-4)GlcNAc(b1-3)GalNAc
Procedure, shortened: as §1

[3] = target: Fuc(a1-2)Gal(b1-4)GlcNAc(b1-3)[Fuc(a1-2)Gal(b1-4)GlcNAc(b1-6)]GalNAc
Procedure, shortened: as §1

[4] = target: Fuc(a1-2)Gal(b1-4)GlcNAc(b1-3)[Fuc(a1-3)[Gal(b1-4)]GlcNAc(b1-6)]Gal(b1-4)Glc
Procedure, shortened: as §1

[5] = target: Fuc(a1-2)Gal(b1-4)GlcNAc(b1-6)GalNAc
Procedure, shortened: as §1

[6] = target: Fuc(a1-2)Gal(b1-4)GlcNAc6S
Procedure, shortened: as §1

[7] = target: Fuc(a1-2)Gal(b1-4)[Fuc(a1-3)]GlcNAc
Procedure, shortened: as §1

[8] = target: Fuc(a1-2)Gal(b1-4)[Fuc(a1-3)]GlcNAc(b1-2)Man(a1-3)[Fuc(a1-2)Gal(b1-4)[Fuc(a1-3)]GlcNAc(b1-2)Man(a1-6)]Man(b1-4)GlcNAc(b1-4)[Fuc(a1-6)]GlcNAc
Procedure, shortened: as §1

[9] = target: Fuc(a1-2)Gal(b1-4)[Fuc(a1-3)]GlcNAc(b1-2)[Fuc(a1-2)Gal(b1-4)[Fuc(a1-3)]GlcNAc(b1-4)]Man(a1-3)[Fuc(a1-2)Gal(b1-4)[Fuc(a1-3)]GlcNAc(b1-2)Man(a1-6)]Man(b1-4)GlcNAc(b1-4)GlcNAc
Procedure, shortened: as §1

[10] = target: Fuc(a1-2)Gal(b1-4)[Fuc(a1-3)]GlcNAc(b1-3)Gal(b1-4)[Fuc(a1-3)]GlcNAc
Procedure, shortened: as §1

[11] = target: Fuc(a1-2)Gal(b1-4)[Fuc(a1-3)]GlcNAc(b1-3)Gal(b1-4)[Fuc(a1-3)]GlcNAc(b1-3)Gal(b1-4)[Fuc(a1-3)]GlcNAc
Procedure, shortened: as §1

[12] = target: Fuc(a1-2)Gal(b1-4)[Fuc(a1-3)]GlcNAc(b1-3)GalNAc
Procedure, shortened: as §1

[13] = target: Fuc(a1-2)Gal(b1-4)[Fuc(a1-3)]GlcNAc(b1-3)[Neu5Ac(a2-6)Gal(b1-4)GlcNAc(b1-6)]Gal(b1-4)Glc
Procedure, shortened: as §1

[14] = target: Fuc(a1-2)Gal3S(b1-4)GlcNAc
Procedure, shortened: as §1

[15] = target: Fuc(a1-2)Gal6S(b1-3)GlcNAc
Procedure, shortened: as §1

[16] = target: Fuc(a1-2)Gal6S(b1-3)GlcNAc6S
Procedure, shortened: as §1

Fuc(a1-2)Gal6S(b1-4)Glc = target: Fuc(a1-2)Gal6S(b1-4)Glc
Procedure, shortened: as §1

[17] = target: Fuc(a1-2)Gal6S(b1-4)Glc6S
Procedure, shortened: as §1

Fuc(a1-2)[Gal(a1-3)]Gal = target: Fuc(a1-2)[Gal(a1-3)]Gal
Procedure, shortened: as §1

[18] = target: Fuc(a1-2)[Gal(a1-3)]Gal(b1-3)GalNAc
Procedure, shortened: as §1

[19] = target: Fuc(a1-2)[Gal(a1-3)]Gal(b1-3)GalNAc(b1-3)Gal(a1-4)Gal(b1-4)Glc
Procedure, shortened: as §1

[20] = target: Fuc(a1-2)[Gal(a1-3)]Gal(b1-3)GlcNAc
Procedure, shortened: as §1

[21] = target: Fuc(a1-2)[Gal(a1-3)]Gal(b1-3)GlcNAc(b1-2)Man(a1-3)[Fuc(a1-2)[Gal(a1-3)]Gal(b1-3)GlcNAc(b1-2)Man(a1-6)]Man(b1-4)GlcNAc(b1-4)GlcNAc
Procedure, shortened: as §1

[22] = target: Fuc(a1-2)[Gal(a1-3)]Gal(b1-3)GlcNAc(b1-2)Man(a1-3)[Fuc(a1-2)[Gal(a1-3)]Gal(b1-3)GlcNAc(b1-2)Man(a1-6)]Man(b1-4)GlcNAc(b1-4)[Fuc(a1-6)]GlcNAc
Procedure, shortened: as §1

[23] = target: Fuc(a1-2)[Gal(a1-3)]Gal(b1-3)GlcNAc(b1-3)GalNAc
Procedure, shortened: as §1

[24] = target: Fuc(a1-2)[Gal(a1-3)]Gal(b1-3)GlcNAc(b1-6)GalNAc
Procedure, shortened: as §1

[25] = target: Fuc(a1-2)[Gal(a1-3)]Gal(b1-4)Glc
Procedure, shortened: as §1

[26] = target: Fuc(a1-2)[Gal(a1-3)]Gal(b1-4)GlcNAc
Procedure, shortened: as §1

[27] = target: Fuc(a1-2)[Gal(a1-3)]Gal(b1-4)GlcNAc(b1-2)Man
Procedure, shortened: as §1

[28] = target: Fuc(a1-2)[Gal(a1-3)]Gal(b1-4)GlcNAc(b1-2)Man(a1-3)[Fuc(a1-2)[Gal(a1-3)]Gal(b1-4)GlcNAc(b1-2)Man(a1-6)]Man(b1-4)GlcNAc(b1-4)GlcNAc
Procedure, shortened: as §1

[29] = target: Fuc(a1-2)[Gal(a1-3)]Gal(b1-4)GlcNAc(b1-2)Man(a1-3)[Fuc(a1-2)[Gal(a1-3)]Gal(b1-4)GlcNAc(b1-2)Man(a1-6)]Man(b1-4)GlcNAc(b1-4)[Fuc(a1-6)]GlcNAc
Procedure, shortened: as §1

[30] = target: Fuc(a1-2)[Gal(a1-3)]Gal(b1-4)GlcNAc(b1-3)GalNAc
Procedure, shortened: as §1

[31] = target: Fuc(a1-2)[Gal(a1-3)]Gal(b1-4)GlcNAc(b1-3)[Fuc(a1-2)[Gal(a1-3)]Gal(b1-4)GlcNAc(b1-6)]GalNAc
Procedure, shortened: as §1

[32] = target: Fuc(a1-2)[Gal(a1-3)]Gal(b1-4)GlcNAc(b1-6)GalNAc
Procedure, shortened: as §1

[33] = target: Fuc(a1-2)[Gal(a1-3)]Gal(b1-4)[Fuc(a1-3)]Glc
Procedure, shortened: as §1

[34] = target: Fuc(a1-2)[Gal(a1-3)]Gal(b1-4)[Fuc(a1-3)]GlcNAc
Procedure, shortened: as §1

[35] = target: Fuc(a1-2)[Gal(a1-3)]Gal(b1-4)[Fuc(a1-3)]GlcNAc(b1-3)GalNAc
Procedure, shortened: as §1

B1: Mnn9-2N3 (Aspergillus fumigatus) (protein)
chain: MAVARRMRRTNPITLLLAAILAIGFFIFVLSPSTTSASPVKAGSASSSSTSQQRREDNAAENPLSPPTKPFFKSQPVRHDGQQAPPPVVQYNLNQLSSTSTSAANGERILILTPMARFVPEYWDNVVKLTYPHELISIGFIIPKNKEGNAALAALEAAIAKTQSGPIDKRFASISILRQDFEPPLQSQDEKERHKISNQKARRESMSRARNSLLFTTLGPATAWVLWLDADIVETPPTLIQDLTAHDHPVLVPNCYQRYYNSEKKKMDVRPYDYNSWIDSSTAQSMAAEMGPDEILLEGYAEMPTYRTLMAHLADTANPNPKKVIELDGVGGTALMVKAEVHRDGAMFPAFPFYHLVETEGFAKMAKRLGYSVYGLPDYFVSRNFFFFFFFFFFG
- glycan array binding signal (z-score) [1]: 0.442
- glycan array binding signal (z-score) [2]: -1
- glycan array binding signal (z-score) [3]: -0.335
- glycan array binding signal (z-score) [4]: 0.664
- glycan array binding signal (z-score) [5]: -0.408
- glycan array binding signal (z-score) [6]: 1.62
- glycan array binding signal (z-score) [7]: 1.63
- glycan array binding signal (z-score) [8]: 3.21
- glycan array binding signal (z-score) [9]: 0.515
- glycan array binding signal (z-score) [10]: 0.007
- glycan array binding signal (z-score) [11]: -0.263
- glycan array binding signal (z-score) [12]: -0.191
- glycan array binding signal (z-score) [13]: -0.511
- glycan array binding signal (z-score) [14]: 1.83
- glycan array binding signal (z-score) [15]: 0.514
- glycan array binding signal (z-score) [16]: -0.594
- glycan array binding signal (z-score) (Fuc(a1-2)Gal6S(b1-4)Glc): -0.467
- glycan array binding signal (z-score) [17]: 0.019
- glycan array binding signal (z-score) (Fuc(a1-2)[Gal(a1-3)]Gal): -0.061
- glycan array binding signal (z-score) [18]: 0.042
- glycan array binding signal (z-score) [19]: -0.502
- glycan array binding signal (z-score) [20]: 1.21
- glycan array binding signal (z-score) [21]: 0.477
- glycan array binding signal (z-score) [22]: -0.24
- glycan array binding signal (z-score) [23]: 0.104
- glycan array binding signal (z-score) [24]: -0.364
- glycan array binding signal (z-score) [25]: -0.824
- glycan array binding signal (z-score) [26]: -1.13
- glycan array binding signal (z-score) [27]: -0.156
- glycan array binding signal (z-score) [28]: -1.33
- glycan array binding signal (z-score) [29]: -0.348
- glycan array binding signal (z-score) [30]: -0.771
- glycan array binding signal (z-score) [31]: -0.601
- glycan array binding signal (z-score) [32]: -2.06
- glycan array binding signal (z-score) [33]: 1.77
- glycan array binding signal (z-score) [34]: -0.761
- glycan array binding signal (z-score) [35]: -0.097
